{"source": "PubChem BioAssay AID504467", "about": "(National Center for Advancing Translational Sciences (NCATS), 2011)", "note": "Screen size: about 330,000 compounds; about 7,700 (2.3%) were called active. The inconclusive results got no clear call from the source; some entries with a clear call stand among them for comparison. Calls come from the whole dose curve; as a rule, active = well fitted inhibition curve with a large enough effect; inconclusive = small, poorly fitted or top-dose-only effect, or effect the other way; inactive = flat fitted curve, though single readings scatter. Where the call is inconclusive, the potency comes from a doubtful curve fit. Potency is the fitted concentration of half-maximal effect."}
{"experiment": "qHTS screen for small molecules that inhibit ELG1-dependent DNA repair in human embryonic kidney (HEK293T) cells expressing luciferase-tagged ELG1; note: nearly all actives have a fitted effect of over 55% in size", "conditions": "HEK293T ELG1-luciferase reporter, luminescence, 16 h, DNA damage induced by 5-fluorouridine; series mostly up to 46.1 µM", "outline": "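In this reporter screen, reduction of luminescence relative to DMSO vehicle indicated activity. Compounds and 5-fluorouridine were added together to 2,000 cells per well, incubated for 16 hr at 37 °C, then developed with ONE-Glo.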"}
{"compound": "COc1ccc(C(=O)COC(=O)c2cccnc2Cl)c(OC)c1", "Potency": "inconclusive: 23.1 µM [activator, partial curve]"}
{"compound": "COc1ccccc1NC(=O)c1ccc(NC(=O)CNC(=O)c2ccc(OC)c(OC)c2)cc1", "Potency": "inconclusive: 20.6 µM [inhibitor, partial curve]"}
{"compound": "CC1(C)Cc2c(cnn2-c2ccc(F)cc2)C(NC(=O)c2ccc(=O)oc2)C1", "note": "(centres undefined)", "Potency": "inconclusive: 8.2 µM [activator, partial curve, poor fit]"}
{"compound": "O=C(NC1C(=O)NNC1c1ccccc1)c1ccccc1", "note": "(centres undefined)", "Potency": "inconclusive: 16.4 µM [activator, partial curve, poor fit]"}
{"compound": "N#Cc1cc2c(nc1SCC(O)CS(=O)(=O)Cc1ccc(Cl)cc1)CCCC2", "note": "(centres undefined)", "Potency": "inconclusive: 20.6 µM [inhibitor, partial curve, poor fit]"}
{"compound": "Cc1cc(C)c(C#N)c(SCc2ccccc2)n1", "Potency": "inconclusive: 18.4 µM [activator, single point]"}
{"compound": "O=C(NCC1(N2CCOCC2)CCCCC1)c1cccc(S(=O)(=O)N2CCc3ccccc3C2)c1", "Potency": "inconclusive: 16.4 µM [inhibitor, single point]"}
{"compound": "Cc1ccc(NC(=S)NC(NC(=O)c2ccco2)C(Cl)(Cl)Cl)cc1", "note": "(centres undefined)", "Potency": "inconclusive: 7.31 µM [inhibitor, single point]"}
{"compound": "Cc1ccc(C)c(N2CCN(C(=O)c3ccc(CS(=O)Cc4cccc(Cl)c4)o3)CC2)c1", "note": "(centres undefined)", "Potency": "inactive"}
{"compound": "Cc1ccc2nc(NC(=O)c3ccc(-c4nc5ccccc5s4)s3)sc2c1", "Potency": "inconclusive: 14.6 µM [activator, partial curve]"}
{"compound": "CCCN(CCC)S(=O)(=O)c1ccc(C(=O)NNc2nc(-c3ccccc3)c3cc(Br)ccc3n2)cc1", "Potency": "inconclusive: 10.3 µM [inhibitor, partial curve]"}
{"compound": "CCOc1cc(S(=O)(=O)NCCc2cccc(C)c2)c(OCC)cc1-n1cnnn1", "Potency": "inconclusive: 23.1 µM [inhibitor, partial curve, poor fit]"}
{"compound": "Cc1ccc(C)c(N2C(=O)CC(Cc3ccccc3)C2=O)c1", "note": "(centres undefined)", "Potency": "inactive"}
{"compound": "Cc1cccc(N2CCN(C(=O)CCCn3c(=O)[nH]c4ccsc4c3=O)CC2C)c1", "note": "(centres undefined)", "Potency": "inconclusive: 16.4 µM [inhibitor, partial curve]"}
{"compound": "O=C(NC1CC1)C1CCN(c2nc3ccccc3s2)CC1", "Potency": "inconclusive: 20.6 µM [activator, partial curve]"}
{"compound": "CCN(CC)C(=O)c1sc(NC(=O)c2ccc(Br)o2)c(C(=O)OC)c1C", "Potency": "inactive"}
{"compound": "O=C(CNC(=O)c1ccc(Br)o1)NC12CC3CC(CC(C3)C1)C2", "Potency": "inconclusive: 18.3 µM [activator, partial curve]"}
{"compound": "CNC(=O)COc1ncnc2scc(-c3ccc(F)cc3)c12", "Potency": "inactive"}
{"compound": "Cc1cccc(N2CCN(C(=O)C3CCCCC3)CC2)c1C", "Potency": "inconclusive: 10.3 µM [inhibitor, partial curve]"}
{"compound": "COc1cccc(C2=CC(c3ccc(OC)c(OC)c3OC)n3nnnc3N2)c1", "note": "(centres undefined)", "Potency": "inconclusive: 4.61 µM [inhibitor, single point]"}
{"compound": "COc1ccc(C(=O)CC(=O)Nc2ccc([N+](=O)[O-])cc2)cc1", "Potency": "inconclusive: 16.4 µM [inhibitor, single point]"}
{"compound": "Cc1ccsc1C(=O)N(Cc1nnc(-c2ccccc2Cl)o1)C1CC1", "Potency": "inactive"}
{"compound": "COc1ccccc1-n1cc(-c2ccc(C)cc2)[nH]c1=S", "Potency": "inconclusive: 29.1 µM [inhibitor, single point]"}
{"compound": "COc1c(Cl)cccc1-c1cn2ccccc2n1", "Potency": "inconclusive: 2.06 µM [activator, full curve]"}
{"compound": "O=C(Nc1nnc(COc2ccc(F)cc2)s1)c1ccco1", "Potency": "inconclusive: 25.9 µM [activator, partial curve, poor fit]"}
{"compound": "COc1cccc(NC(=O)C2CC(=O)N(Cc3ccc(C)cc3)C2)c1", "note": "(centres undefined)", "Potency": "inconclusive: 20.6 µM [activator, partial curve, poor fit]"}
{"compound": "COc1ccc(OC)c(NC(=O)/C=C/c2ccc(S(=O)(=O)N3CCOCC3)cc2)c1", "Potency": "inactive"}
{"compound": "Cc1cccc(-n2c(C)cc(C=C3C(=O)c4ccccc4C3=O)c2C)c1", "Potency": "inconclusive: 7.31 µM [activator, partial curve]"}
{"compound": "COc1ccc(NC(=S)N(Cc2ccc(C)cc2)Cc2ccccn2)cc1", "Potency": "inconclusive: 16.4 µM [inhibitor, single point]"}
{"compound": "CCn1c2ccc(F)cc2c2nnc(SCCN3CCOCC3)nc21", "Potency": "inactive"}
{"compound": "O=C(O)c1cccc(NC(=O)c2ccc(Cl)c(S(=O)(=O)N3CCCCCC3)c2)c1", "Potency": "inconclusive: 0.73 µM [activator, full curve]"}
{"compound": "[O-]/C(=C(\\C(=S)NCc1ccco1)[n+]1ccccc1)c1ccccc1Br", "Potency": "inactive"}
{"compound": "COCCOc1cc(Nc2nnc(C(F)(F)F)s2)c(Cl)cc1Cl", "Potency": "active: 6.51 µM"}
{"compound": "COc1ccc(-c2cc3c(=O)n(CC(=O)NCCCN4CCC(Cc5ccccc5)CC4)ncn3n2)cc1", "Potency": "inconclusive: 13 µM [activator, partial curve]"}
{"compound": "COCCCNC(=O)/C(C#N)=C/c1c(N2CCN(C)CC2)nc2ccccn2c1=O", "Potency": "inactive"}
{"compound": "CCOC(=O)C1CCCN(C(=O)CSc2nc(C)cc(C)n2)C1", "note": "(centres undefined)", "Potency": "inactive"}
{"compound": "CN(C)S(=O)(=O)c1cccc(NC(=O)c2cc(=O)[nH]c(=O)[nH]2)c1", "Potency": "inactive"}
{"compound": "Cn1cccc1CC(=O)N/N=C/c1ccc(Cl)cc1", "Potency": "inconclusive: 20.6 µM [activator, partial curve]"}
{"compound": "Cc1cnc(C(=O)Nc2ccccc2-c2ccc(C)o2)cn1", "Potency": "inconclusive: 29.1 µM [inhibitor, single point]"}
{"compound": "O=C(COc1ccc2c(c1)CCC2)N1CCN(c2ccccc2F)CC1", "Potency": "inactive"}
{"compound": "COc1cc(/C=N/NC(=O)C(N)=O)ccc1OCC(=O)N1C(C)CCCC1C", "note": "(centres undefined)", "Potency": "inactive"}
{"compound": "COc1cc(C=O)ccc1OCCSc1ccc(C)cc1", "Potency": "inconclusive: 29.1 µM [activator, single point]"}
{"compound": "CC1CC(C)CN(C(=O)CN2C(=O)NC3(CCCCCC3)C2=O)C1", "note": "(centres undefined)", "Potency": "inactive"}
{"compound": "O=C(Nc1ccc2c(c1)OCO2)C1CCN(c2ccc(S(=O)(=O)N3CCOCC3)cc2)CC1", "Potency": "inconclusive: 29.1 µM [activator, partial curve, poor fit]"}
{"compound": "CCN(CC)C(=O)CSc1ncnc2c1cnn2-c1ccccc1", "Potency": "inconclusive: 3.26 µM [activator, full curve]"}
{"compound": "N#C/C(=C\\c1ccc(Cl)cc1Cl)c1n[nH]c(Cn2cncn2)n1", "Potency": "inconclusive: 32.6 µM [activator, partial curve, poor fit]"}
{"compound": "COc1nccnc1NS(=O)(=O)c1ccc(NCc2cc(Br)ccc2O)cc1", "Potency": "inconclusive: 16.4 µM [activator, single point]"}
{"compound": "Cc1cc(C(=O)CSc2nnc(-c3ccc4c(c3)OCO4)o2)c(C)n1-c1ccc(F)cc1", "Potency": "inactive"}
{"compound": "Cc1c(Cl)cnc(NC(=O)COC(=O)[C@@H](NC(=O)c2ccco2)C(C)C)c1Cl", "Potency": "inactive"}
{"compound": "Cc1ccc(/C=C(\\C#N)C(=O)Nc2ccccn2)o1", "Potency": "inconclusive: 9.2 µM [activator, partial curve]"}
{"compound": "C[C@@H]1[C@H](O)C[C@@]23COC(=O)C2=CCC[C@@H]3[C@@]1(C)CC/C(=C/CO)CO", "Potency": "inactive"}
{"compound": "O=C(c1ccco1)n1nc(-c2ccccc2)nc1NCc1ccco1", "Potency": "inconclusive: 20.6 µM [activator, partial curve, poor fit]"}
{"compound": "O=C1c2cccc3c(N4CCCCC4)ccc(c23)C(=O)N1c1ccc(O)cc1", "Potency": "inactive"}
{"compound": "O=C(NC1CCCCCC1)c1ccc(N2CCCC2=O)cc1", "Potency": "inconclusive: 9.2 µM [activator, partial curve]"}
{"compound": "COc1ccc(C(CC(=O)Nc2cc(OC)cc(OC)c2)n2cccc2)cc1", "note": "(centres undefined)", "Potency": "inconclusive: 18.4 µM [inhibitor, partial curve]"}
{"compound": "N#Cc1ccccc1NC(=O)c1ccc2c(c1)OCCO2", "Potency": "inconclusive: 16.4 µM [activator, partial curve]"}
{"compound": "CCCCNC(=O)c1cccc2c(=O)c(C)c(-c3ccccc3)oc12", "Potency": "inconclusive: 9.2 µM [inhibitor, partial curve]"}
{"compound": "COc1ccc2[nH]c(C)c(CCNc3ccc(C(F)(F)F)cc3[N+](=O)[O-])c2c1", "Potency": "inconclusive: 29.1 µM [inhibitor, single point]"}
{"compound": "Cc1ccc2nc(-c3cccnc3)cc(C(=O)N3CCN(c4ccc([N+](=O)[O-])cc4)CC3)c2c1", "Potency": "inconclusive: 4.11 µM [inhibitor, full curve]"}
{"compound": "O=C(Nc1ccc2ccccc2c1)c1ccccc1F", "Potency": "inconclusive: 1.03 µM [activator, full curve]"}
{"compound": "CN(C(=O)CSc1nnc2ccccn12)C1CCS(=O)(=O)C1", "note": "(centres undefined)", "Potency": "inconclusive: 23.1 µM [activator, partial curve, poor fit]"}
{"compound": "CCOC(=O)N1CCN(S(=O)(=O)c2ccc3c(c2)CC(C)N3C(C)=O)CC1", "note": "(centres undefined)", "Potency": "inactive"}
{"compound": "C1=C(c2cc3ccccc3cn2)CCCC1", "Potency": "inconclusive: 8.2 µM [activator, partial curve]"}
{"compound": "Cc1cccn2cc(-c3ccc(F)cc3)nc12", "Potency": "inconclusive: 1.64 µM [activator, full curve]"}
{"compound": "O=C(CN1C(=O)S/C(=C/c2ccncc2)C1=O)Nc1ccccc1", "Potency": "inactive"}
{"compound": "O=C(Nc1ccon1)c1cccc(S(=O)(=O)N2CCCCCC2)c1", "Potency": "inconclusive: 18.4 µM [inhibitor, single point]"}
{"compound": "CC(C)OP(=O)(OC(C)C)C(O)c1ccc(N(C)C)cc1", "note": "(centres undefined)", "Potency": "inactive"}
{"compound": "Cc1cccc(/C=N/Nc2ccc3ccccc3n2)c1", "Potency": "inconclusive: 0.231 µM [activator, partial curve]"}
{"compound": "CN(C)C(CNC1CC(C)(C)NC(C)(C)C1)c1cccc(F)c1", "note": "(centres undefined)", "Potency": "inconclusive: 32.6 µM [activator, partial curve, poor fit]"}
